Results reported in article doi:10.1101/2024.12.10.627716.
These are yes or no findings as the source states them, for the method shown. For some of these results: In cells and extracts the contact can be indirect. Some binding calls cover weakened binding; strength is not graded here. For some of these results: Where a sequence is shown, tags or fusion partners need not be part of it.

By UniProt entry, the sequences of proteins in these tests, tags left out.
UniProt Q92804, whole entry: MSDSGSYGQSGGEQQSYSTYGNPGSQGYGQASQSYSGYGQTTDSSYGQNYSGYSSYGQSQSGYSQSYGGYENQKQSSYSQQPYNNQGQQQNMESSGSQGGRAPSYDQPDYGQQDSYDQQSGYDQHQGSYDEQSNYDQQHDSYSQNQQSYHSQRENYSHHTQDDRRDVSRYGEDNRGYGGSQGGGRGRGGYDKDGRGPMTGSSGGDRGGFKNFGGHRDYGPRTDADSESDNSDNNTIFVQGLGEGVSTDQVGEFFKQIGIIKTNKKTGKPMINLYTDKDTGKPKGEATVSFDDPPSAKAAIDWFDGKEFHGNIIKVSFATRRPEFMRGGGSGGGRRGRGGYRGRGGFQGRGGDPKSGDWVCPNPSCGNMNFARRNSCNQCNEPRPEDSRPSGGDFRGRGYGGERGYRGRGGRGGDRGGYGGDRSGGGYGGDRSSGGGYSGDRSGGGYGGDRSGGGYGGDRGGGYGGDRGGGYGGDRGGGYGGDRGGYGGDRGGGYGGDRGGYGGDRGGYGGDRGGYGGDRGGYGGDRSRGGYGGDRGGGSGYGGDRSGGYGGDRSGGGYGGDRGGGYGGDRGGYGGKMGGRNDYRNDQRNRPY
UniProt P09651, whole entry: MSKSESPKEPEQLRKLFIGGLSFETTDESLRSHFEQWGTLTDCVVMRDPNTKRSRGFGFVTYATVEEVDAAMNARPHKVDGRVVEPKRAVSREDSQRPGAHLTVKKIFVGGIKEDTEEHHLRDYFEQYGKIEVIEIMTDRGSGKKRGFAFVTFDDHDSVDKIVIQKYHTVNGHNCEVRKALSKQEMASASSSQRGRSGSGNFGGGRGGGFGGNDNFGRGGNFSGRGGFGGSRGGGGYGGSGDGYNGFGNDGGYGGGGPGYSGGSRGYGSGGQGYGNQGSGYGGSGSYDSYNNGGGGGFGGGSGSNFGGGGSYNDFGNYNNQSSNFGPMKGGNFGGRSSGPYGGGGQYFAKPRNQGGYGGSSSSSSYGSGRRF
UniProt P19338, whole entry: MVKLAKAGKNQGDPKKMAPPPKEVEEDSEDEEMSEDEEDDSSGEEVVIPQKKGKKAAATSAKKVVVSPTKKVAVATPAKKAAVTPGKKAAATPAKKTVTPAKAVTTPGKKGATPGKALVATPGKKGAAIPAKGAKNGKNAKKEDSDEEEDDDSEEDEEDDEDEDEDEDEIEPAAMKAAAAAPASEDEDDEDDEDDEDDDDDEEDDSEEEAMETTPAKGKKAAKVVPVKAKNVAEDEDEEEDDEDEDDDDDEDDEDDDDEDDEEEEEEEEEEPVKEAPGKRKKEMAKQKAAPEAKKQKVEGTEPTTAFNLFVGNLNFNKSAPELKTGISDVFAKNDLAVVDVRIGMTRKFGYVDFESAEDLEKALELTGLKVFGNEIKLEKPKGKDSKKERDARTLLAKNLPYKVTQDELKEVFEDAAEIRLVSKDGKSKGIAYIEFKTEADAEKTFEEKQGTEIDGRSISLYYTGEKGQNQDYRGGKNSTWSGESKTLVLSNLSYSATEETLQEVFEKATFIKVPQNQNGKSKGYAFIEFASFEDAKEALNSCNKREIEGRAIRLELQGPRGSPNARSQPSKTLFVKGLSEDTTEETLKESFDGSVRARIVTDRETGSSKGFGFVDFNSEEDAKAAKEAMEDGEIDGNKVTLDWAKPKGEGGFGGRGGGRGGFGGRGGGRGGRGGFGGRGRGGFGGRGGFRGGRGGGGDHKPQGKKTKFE

What was measured:
[1] = target: FLAG-tagged TAF15, expressed in HEK293T cells (UniProt Q92804); experiment: co-IP
[2] = target: T1, FLAG-tagged RBFOX2, expressed in HEK293T cells (UniProt O43251); experiment: co-IP
T1 sequence: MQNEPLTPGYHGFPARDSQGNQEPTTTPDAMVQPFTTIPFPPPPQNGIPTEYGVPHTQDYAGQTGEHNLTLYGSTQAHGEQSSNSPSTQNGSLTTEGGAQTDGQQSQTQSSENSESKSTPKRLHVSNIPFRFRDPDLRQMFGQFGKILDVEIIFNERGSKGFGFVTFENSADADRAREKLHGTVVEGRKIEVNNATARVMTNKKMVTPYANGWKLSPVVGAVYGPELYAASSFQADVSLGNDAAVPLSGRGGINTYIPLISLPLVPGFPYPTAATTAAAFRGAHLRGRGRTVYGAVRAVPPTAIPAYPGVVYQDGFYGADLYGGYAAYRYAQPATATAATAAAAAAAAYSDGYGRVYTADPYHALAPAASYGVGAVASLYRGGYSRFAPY

[3] = target: T2, FLAG-tagged GAR1, expressed in HEK293T cells (UniProt Q9NY12); experiment: co-IP
T2 sequence: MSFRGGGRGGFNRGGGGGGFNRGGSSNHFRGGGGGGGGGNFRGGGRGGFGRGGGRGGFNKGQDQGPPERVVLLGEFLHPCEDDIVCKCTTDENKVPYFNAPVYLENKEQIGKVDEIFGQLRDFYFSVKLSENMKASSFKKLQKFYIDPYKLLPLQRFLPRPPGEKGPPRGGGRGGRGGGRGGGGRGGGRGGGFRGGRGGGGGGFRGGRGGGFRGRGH

[4] = target: FLAG-tagged hnRNPK, expressed in HEK293T cells (UniProt P61978); experiment: co-IP
[5] = target: T3, FLAG-tagged Fibrillarin, expressed in HEK293T cells (UniProt P22087); experiment: co-IP
T3 sequence: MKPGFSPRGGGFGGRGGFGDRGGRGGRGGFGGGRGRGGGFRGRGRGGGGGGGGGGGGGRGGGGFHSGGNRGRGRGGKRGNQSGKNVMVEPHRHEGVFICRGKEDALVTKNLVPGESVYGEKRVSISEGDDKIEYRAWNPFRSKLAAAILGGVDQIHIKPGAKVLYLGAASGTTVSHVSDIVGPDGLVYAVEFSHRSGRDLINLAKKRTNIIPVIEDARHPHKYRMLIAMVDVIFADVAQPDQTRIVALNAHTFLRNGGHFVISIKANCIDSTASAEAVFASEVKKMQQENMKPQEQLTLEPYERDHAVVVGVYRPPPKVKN

[6] = target: FLAG-tagged hnRNPA1, expressed in HEK293T cells (UniProt P09651); experiment: co-IP
[7] = target: FLAG-tagged Nucleolin, expressed in HEK293T cells (UniProt P19338); experiment: co-IP
hnRNPA1-FLAG [8] = target: hnRNPA1-FLAG (UniProt P09651); experiment: pull-down
[9] = target: T4, fibrillarin (construct of the gel filtration and cryo-EM experiments) (UniProt P22087); experiment: SEC
T4 sequence: T3 sequence

hnRNPA1-FLAG [10] = target: hnRNPA1-FLAG (UniProt P09651); experiment: SEC

Measured: binding

MYC-PRMT1 wild type, expressed in HEK293T cells (from UniProt Q99873 1-371) (enzyme)
not listed: hnRNPA1-FLAG [8] | [9] | hnRNPA1-FLAG [10]
binds: all other assays above

purified recombinant human PRMT1 protein (wild type) (from UniProt Q99873 1-371) (enzyme)
binds: hnRNPA1-FLAG [8] | [9] | hnRNPA1-FLAG [10]
